The list shows a part of the results.
Tests used:
Test in all cases: log2 fold change, soluble protein after heating vs DMSO (PISA); higher = thermal stabilisation; K562 cells, 10 uM, 30 min; active = over 0.2 and 3.5 SD of the protein, either way, in both replicates (recomputed)
[1] = compound: CN1CCc2c(c3ccccc3n2Cc2ccc(C(=O)NO)cc2)C1 [Tubastatin A]
Summary of the method: (§1)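 Quantification of soluble protein used TMTpro 16plex LC-MS/MS, with channel sums equalised. Samples were the supernatant after 21,000xg for 90 min of pooled aliquots from K562 cells (2×10^6 cells/mL) treated with 10 μM compound for 30 min, heated for 3 min over 48°C-58°C, and extracted in PBS with 0.5% NP-40 at 4°C. Values, from duplicates, describe thermal stability against control samples on a log2 fold-change scale.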

Sequences of proteins named here, by UniProt entry; tags and fusion partners are left off. A change or cut given only in a name is not applied to a line headed by its entry.
UniProt Q9H867: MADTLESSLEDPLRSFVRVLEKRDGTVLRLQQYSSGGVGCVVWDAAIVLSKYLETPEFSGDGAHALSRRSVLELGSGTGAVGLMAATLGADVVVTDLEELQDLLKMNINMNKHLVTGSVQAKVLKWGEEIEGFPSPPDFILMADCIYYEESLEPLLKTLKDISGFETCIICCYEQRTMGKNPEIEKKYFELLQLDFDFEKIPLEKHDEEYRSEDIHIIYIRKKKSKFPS
UniProt Q9H977: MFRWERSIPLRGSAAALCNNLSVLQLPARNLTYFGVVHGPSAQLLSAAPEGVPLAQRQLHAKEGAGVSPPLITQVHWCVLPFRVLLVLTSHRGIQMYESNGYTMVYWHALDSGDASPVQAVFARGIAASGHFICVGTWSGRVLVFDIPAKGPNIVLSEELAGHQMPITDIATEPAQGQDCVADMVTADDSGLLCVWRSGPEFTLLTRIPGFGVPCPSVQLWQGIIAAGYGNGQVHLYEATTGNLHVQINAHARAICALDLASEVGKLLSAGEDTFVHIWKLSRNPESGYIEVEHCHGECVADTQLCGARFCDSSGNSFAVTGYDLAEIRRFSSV
UniProt Q9C0J8: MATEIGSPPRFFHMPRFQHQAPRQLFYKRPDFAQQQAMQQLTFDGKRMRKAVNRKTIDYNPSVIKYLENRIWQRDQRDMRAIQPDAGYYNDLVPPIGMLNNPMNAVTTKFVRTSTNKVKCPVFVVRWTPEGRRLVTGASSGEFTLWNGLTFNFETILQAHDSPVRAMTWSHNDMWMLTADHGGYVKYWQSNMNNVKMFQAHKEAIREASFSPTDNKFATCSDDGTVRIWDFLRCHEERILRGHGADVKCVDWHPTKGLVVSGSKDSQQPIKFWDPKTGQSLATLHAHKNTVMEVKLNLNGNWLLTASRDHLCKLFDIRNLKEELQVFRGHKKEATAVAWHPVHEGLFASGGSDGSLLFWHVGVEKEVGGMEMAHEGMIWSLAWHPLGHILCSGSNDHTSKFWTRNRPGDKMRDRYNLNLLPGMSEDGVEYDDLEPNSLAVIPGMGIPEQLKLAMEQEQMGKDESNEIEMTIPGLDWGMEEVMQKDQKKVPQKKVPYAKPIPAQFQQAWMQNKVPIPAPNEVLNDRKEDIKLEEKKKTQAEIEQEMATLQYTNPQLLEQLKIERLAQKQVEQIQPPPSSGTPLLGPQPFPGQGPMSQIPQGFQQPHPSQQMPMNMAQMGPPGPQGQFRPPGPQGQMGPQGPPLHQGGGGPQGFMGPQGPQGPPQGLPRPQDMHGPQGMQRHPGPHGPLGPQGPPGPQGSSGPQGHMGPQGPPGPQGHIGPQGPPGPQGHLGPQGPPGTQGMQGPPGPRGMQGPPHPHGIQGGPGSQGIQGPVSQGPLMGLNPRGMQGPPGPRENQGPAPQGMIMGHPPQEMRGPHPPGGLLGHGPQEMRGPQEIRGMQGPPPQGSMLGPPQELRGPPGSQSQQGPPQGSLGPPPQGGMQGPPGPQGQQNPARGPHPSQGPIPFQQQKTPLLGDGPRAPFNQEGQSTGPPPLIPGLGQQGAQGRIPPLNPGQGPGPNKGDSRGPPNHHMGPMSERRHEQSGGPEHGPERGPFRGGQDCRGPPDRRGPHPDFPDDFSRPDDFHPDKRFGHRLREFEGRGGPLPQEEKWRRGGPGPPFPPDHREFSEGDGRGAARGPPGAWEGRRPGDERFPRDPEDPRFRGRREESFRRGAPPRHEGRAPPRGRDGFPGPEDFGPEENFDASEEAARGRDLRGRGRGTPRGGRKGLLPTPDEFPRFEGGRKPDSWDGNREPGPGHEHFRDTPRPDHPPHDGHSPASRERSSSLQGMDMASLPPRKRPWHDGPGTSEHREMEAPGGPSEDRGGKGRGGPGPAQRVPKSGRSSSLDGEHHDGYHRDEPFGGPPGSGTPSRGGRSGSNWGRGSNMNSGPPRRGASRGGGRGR
UniProt Q96S15: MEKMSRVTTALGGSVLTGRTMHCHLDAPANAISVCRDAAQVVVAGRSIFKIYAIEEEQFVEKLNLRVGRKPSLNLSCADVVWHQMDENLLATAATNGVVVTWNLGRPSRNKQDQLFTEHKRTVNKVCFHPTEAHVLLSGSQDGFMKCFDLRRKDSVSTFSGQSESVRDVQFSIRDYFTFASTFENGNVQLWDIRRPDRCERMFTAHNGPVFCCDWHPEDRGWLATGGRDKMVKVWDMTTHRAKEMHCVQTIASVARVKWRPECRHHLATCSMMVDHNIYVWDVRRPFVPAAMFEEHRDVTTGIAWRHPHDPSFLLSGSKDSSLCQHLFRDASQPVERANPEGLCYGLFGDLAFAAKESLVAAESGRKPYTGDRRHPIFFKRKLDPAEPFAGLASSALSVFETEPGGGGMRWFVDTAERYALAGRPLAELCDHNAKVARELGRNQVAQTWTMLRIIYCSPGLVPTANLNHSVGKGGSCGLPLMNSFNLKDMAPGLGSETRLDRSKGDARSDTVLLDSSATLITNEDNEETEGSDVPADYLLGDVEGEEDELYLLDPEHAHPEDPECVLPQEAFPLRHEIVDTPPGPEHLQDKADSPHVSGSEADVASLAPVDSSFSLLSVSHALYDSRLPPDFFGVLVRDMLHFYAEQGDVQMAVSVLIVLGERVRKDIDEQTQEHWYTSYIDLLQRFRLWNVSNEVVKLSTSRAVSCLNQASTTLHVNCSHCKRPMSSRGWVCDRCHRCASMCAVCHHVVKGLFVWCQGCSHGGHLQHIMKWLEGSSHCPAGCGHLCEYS
UniProt Q502W6: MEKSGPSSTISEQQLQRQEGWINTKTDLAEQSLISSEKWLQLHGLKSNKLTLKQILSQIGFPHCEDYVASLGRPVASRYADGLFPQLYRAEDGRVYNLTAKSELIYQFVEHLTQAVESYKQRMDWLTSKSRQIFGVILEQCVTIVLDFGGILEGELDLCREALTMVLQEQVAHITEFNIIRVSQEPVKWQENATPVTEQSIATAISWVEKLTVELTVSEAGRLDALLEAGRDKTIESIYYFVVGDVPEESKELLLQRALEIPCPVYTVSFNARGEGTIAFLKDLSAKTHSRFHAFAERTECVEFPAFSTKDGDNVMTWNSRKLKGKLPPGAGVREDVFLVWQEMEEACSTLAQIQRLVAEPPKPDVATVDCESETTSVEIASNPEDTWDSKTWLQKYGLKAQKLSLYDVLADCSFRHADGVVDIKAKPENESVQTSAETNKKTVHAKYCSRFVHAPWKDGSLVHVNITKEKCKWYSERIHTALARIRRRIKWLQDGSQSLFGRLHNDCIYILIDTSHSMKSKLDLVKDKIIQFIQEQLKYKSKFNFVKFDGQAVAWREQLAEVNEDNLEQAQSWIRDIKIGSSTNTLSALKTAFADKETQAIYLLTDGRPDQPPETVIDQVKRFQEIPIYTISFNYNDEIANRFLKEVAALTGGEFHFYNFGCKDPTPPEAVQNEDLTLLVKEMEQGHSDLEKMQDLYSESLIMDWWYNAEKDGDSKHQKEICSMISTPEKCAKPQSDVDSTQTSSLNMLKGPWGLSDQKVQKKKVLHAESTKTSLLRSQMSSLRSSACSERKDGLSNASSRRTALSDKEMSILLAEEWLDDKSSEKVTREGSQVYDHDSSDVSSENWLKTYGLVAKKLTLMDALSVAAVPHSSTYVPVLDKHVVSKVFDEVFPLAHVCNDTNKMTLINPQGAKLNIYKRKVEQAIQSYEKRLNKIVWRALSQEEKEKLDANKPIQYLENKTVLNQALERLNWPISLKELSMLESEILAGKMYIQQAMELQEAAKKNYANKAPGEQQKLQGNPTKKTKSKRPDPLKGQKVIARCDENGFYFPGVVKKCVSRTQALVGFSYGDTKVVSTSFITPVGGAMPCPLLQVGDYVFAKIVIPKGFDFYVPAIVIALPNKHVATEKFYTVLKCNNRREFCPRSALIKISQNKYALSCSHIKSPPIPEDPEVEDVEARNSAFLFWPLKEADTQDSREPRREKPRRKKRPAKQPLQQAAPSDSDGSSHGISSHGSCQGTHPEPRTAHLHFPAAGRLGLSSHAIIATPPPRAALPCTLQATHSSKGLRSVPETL
UniProt Q9Y4P8: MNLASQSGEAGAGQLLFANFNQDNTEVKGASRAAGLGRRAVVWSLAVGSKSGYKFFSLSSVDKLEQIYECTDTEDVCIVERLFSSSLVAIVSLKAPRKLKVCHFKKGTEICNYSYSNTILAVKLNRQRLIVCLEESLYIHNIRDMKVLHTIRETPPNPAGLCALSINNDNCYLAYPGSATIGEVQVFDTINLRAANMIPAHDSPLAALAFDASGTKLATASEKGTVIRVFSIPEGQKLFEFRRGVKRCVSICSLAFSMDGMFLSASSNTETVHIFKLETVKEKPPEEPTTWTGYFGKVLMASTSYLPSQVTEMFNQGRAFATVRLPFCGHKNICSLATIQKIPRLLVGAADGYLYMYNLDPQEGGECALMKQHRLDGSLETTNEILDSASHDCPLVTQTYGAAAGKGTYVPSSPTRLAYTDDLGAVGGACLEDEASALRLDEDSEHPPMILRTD
UniProt A4D1P6: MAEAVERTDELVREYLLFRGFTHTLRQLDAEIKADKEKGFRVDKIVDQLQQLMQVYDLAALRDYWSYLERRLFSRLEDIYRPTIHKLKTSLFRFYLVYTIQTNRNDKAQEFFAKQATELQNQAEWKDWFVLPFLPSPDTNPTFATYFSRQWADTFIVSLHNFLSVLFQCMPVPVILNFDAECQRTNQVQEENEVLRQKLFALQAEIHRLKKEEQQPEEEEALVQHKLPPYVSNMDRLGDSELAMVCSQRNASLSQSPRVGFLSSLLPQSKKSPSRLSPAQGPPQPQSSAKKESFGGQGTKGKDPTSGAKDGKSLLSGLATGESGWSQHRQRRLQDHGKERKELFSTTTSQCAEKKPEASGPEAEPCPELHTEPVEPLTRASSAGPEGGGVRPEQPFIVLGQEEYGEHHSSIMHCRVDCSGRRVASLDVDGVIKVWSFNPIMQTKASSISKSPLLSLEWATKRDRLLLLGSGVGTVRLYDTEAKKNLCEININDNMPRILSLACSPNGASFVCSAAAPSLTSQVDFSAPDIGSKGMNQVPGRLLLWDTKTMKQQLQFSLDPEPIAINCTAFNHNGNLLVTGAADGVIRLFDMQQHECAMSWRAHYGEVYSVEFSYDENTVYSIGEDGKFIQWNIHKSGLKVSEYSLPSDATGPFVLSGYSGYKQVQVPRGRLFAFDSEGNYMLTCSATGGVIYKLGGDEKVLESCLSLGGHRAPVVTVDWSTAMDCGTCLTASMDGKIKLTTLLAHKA
UniProt Q3ZAQ7: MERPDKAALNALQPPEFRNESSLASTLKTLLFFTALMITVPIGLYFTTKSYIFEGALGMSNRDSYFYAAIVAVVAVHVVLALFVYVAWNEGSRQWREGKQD
UniProt Q8NEZ2: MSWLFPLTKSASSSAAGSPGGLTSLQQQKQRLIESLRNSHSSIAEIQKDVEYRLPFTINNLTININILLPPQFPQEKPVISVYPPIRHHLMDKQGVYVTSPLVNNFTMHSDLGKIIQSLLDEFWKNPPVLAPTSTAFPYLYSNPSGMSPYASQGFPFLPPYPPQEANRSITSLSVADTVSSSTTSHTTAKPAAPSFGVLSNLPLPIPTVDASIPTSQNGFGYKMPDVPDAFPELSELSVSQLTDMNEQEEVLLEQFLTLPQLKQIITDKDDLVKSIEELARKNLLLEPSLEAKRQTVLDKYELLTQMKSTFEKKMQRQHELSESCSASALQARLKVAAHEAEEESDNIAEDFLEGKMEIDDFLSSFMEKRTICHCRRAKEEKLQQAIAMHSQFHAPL
UniProt Q8IWA0: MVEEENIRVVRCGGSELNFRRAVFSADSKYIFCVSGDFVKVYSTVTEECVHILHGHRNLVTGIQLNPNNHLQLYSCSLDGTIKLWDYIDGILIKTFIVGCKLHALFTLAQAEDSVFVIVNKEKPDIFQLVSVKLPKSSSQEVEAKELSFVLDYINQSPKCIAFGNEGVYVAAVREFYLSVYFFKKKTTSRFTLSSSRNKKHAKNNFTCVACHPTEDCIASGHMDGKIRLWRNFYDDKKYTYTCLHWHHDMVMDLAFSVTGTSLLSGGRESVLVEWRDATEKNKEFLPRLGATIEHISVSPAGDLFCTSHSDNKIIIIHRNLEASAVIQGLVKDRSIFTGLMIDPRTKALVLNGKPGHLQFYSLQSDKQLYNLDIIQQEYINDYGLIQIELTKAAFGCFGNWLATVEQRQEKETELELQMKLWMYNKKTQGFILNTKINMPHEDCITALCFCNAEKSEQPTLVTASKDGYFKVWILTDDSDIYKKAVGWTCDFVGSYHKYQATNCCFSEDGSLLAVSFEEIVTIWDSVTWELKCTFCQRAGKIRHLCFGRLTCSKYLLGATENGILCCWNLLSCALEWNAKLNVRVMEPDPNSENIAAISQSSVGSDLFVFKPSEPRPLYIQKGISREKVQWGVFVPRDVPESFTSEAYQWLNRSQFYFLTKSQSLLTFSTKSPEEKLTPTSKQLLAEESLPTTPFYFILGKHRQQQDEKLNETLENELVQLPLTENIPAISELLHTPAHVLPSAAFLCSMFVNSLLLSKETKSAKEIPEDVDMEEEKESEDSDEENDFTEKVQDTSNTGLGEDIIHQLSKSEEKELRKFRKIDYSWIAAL

[2] = compound: CN1CCN(CCOc2cc(OC3CCOCC3)c3c(Nc4c(Cl)ccc5c4OCO5)ncnc3c2)CC1 [saracatinib]
Summary of the method: as §1

[3] = compound: CNc1nc(-c2ccc3c(N)n[nH]c3c2)cc(N2C[C@@H](C(=O)NC3CCCCC3)CC[C@H]2C)n1
Summary of the method: as §1

[4] = compound: CN1CCN(c2nc(C3=C(c4c[nH]c5ccccc45)C(=O)NC3=O)c3ccccc3n2)CC1 [sotrastaurin]
Summary of the method: as §1

[5] = compound: CN1CC[C@H](c2c(O)cc(O)c3c(=O)cc(-c4ccccc4Cl)oc23)[C@H](O)C1 [alvocidib]
Summary of the method: as §1

[6] = compound: CNC(=O)C1=CC=CC=C1NC2=NC(=NC=C2Cl)NC3=C(C=C(C=C3)N4CCOCC4)OC
Summary of the method: as §1

[7] = compound: CNC(=O)c1ccc(Nc2ncc(C(F)(F)F)c(NCc3nccnc3N(C)S(C)(=O)=O)n2)cc1 [defactinib]
Summary of the method: as §1

[8] = compound: CNCc1ccc(-c2[nH]c3cc(F)cc4c3c2CCNC4=O)cc1 [rucaparib]
Summary of the method: as §1

[9] = compound: COC(=O)N[C@@H](C)CNc1nccc(-c2cn(C(C)C)nc2-c2cc(Cl)cc(NS(C)(=O)=O)c2F)n1 [encorafenib]
Summary of the method: as §1

[10] = compound: COC(=O)[C@H](CCSC)NC(=O)C1=C(C=C(C=C1)NC[C@H](CS)N)C2=CC=CC=C2
Summary of the method: as §1

Measured: log2 fold change

VCPKMT (UniProt Q9H867)
inactive: [1] 0.018

WDR54 isoform 4 (UniProt Q9H977)
inactive: [2] -0.001 | [3] 0.076

WDR33 (UniProt Q9C0J8)
inactive: [4] -0.009 | [5] 0.098 | [1] 0.083 | [6] 0.132 | [7] 0.126 | [8] 0.074 | [9] 0.05 | [10] 0.007

WDR81 (UniProt Q562E7)
inactive: [4] 0.055 | [1] -0.011

VSIR (UniProt Q9H7M9)
inactive: [4] 0.001 | [5] -0.051 | [6] 0.038 | [7] 0.042 | [8] -0.12 | [9] -0.092 | [10] 0.037

WDR24 (UniProt Q96S15)
inactive: [4] 0.082 | [5] 0.092 | [1] 0.015 | [6] -0.031 | [8] 0.482 | [9] -0.187

Quoted from the entries so far (3 entries):
WDR81 (UniProt Q562E7)
inactive: [4] 0.055 | [1] -0.011

VSIR (UniProt Q9H7M9)
inactive: [4] 0.001 | [5] -0.051 | [6] 0.038 | [7] 0.042 | [8] -0.12 | [9] -0.092 | [10] 0.037

WDR24 (UniProt Q96S15)
inactive: [4] 0.082 | [5] 0.092 | [1] 0.015 | [6] -0.031 | [8] 0.482 | [9] -0.187

Going on with the list.

VPS13A isoform 4 (UniProt Q96RL7)
inactive: [1] 0.028 | [6] -0.103

WDR19 (UniProt Q8NEZ3)
inactive: [2] 0.033 | [5] 0.001 | [1] 0.177 | [7] 0.035 | [8] 0.079 | [3] -0.074 | [9] -0.026 | [10] 0.274

VDAC2 (UniProt Q5JSD2)
inactive: [4] 0.109 | [8] -0.257 | [9] 0.013

WASF1 (UniProt Q92558)
inactive: [2] -0.037 | [5] -0.117 | [1] -0.016 | [6] -0.047 | [7] -0.054 | [8] 0.025 | [3] 0.064 | [9] 0 | [10] -0.006

WDR83 (UniProt Q9BRX9)
inactive: [6] -0.035

WARS1 (UniProt G3V227)
inactive: [2] 0.003 | [1] -0.053 | [7] -0.001 | [3] 0.021 | [10] 0.3

VEGFA (UniProt H0YBI8)
inactive: [2] 0.058 | [1] 0.155 | [6] 0.025 | [7] -0.049 | [8] -0.027 | [3] -0.055 | [9] -0.273 | [10] 0.148

VWA3B isoform 6 (UniProt Q502W6)
inactive: [2] 0.042 | [1] -0.018 | [6] 0.017 | [7] 0.039 | [8] -0.448 | [3] -0.076 | [9] 0.095 | [10] -0.04

WIPI2 isoform 6 (UniProt Q9Y4P8)
inactive: [5] -0.106 | [8] -0.035 | [9] -0.124

WDR91 (UniProt A4D1P6)
inactive: [2] -0.079 | [5] -0.142 | [1] 0.118 | [7] 0.035 | [8] 0.091 | [3] 0.083 | [9] 0.15 | [10] -0.034

VDAC1 (UniProt C9JI87)
inactive: [2] -0.027 | [4] 0.034 | [6] -0.135 | [8] -0.247 | [3] -0.189 | [9] -0.087

VGF (UniProt O15240)
inactive: [6] -0.054

WARS1 (UniProt G3V3P2)
inactive: [4] 0.336

VMA21 (UniProt Q3ZAQ7)
inactive: [4] 0.036 | [5] -0.021 | [6] 0.072 | [7] -0.022 | [8] 0.018 | [9] -0.108 | [10] 0.219

VLDLR (UniProt P98155)
inactive: [4] -0.001 | [1] 0.015

WDR4 isoform 3 (UniProt P57081)
inactive: [4] 0.098

XAB2 (UniProt Q9HCS7)
inactive: [2] 0.052 | [3] 0.073

VGLL4 isoform 4 (UniProt Q14135)
inactive: [4] 0.017 | [1] 0.078 | [6] -0.007 | [7] -0.094 | [10] 0.047

VMA21 isoform 2 (UniProt Q3ZAQ7)
inactive: [2] 0.19 | [5] 0.078 | [1] 0.005 | [6] 0.02 | [8] -0.056 | [3] 0.207 | [9] -0.019

VNN1 (UniProt O95497)
inactive: [5] 0.15 | [8] -0.046 | [9] -0.04

VPS37A (UniProt Q8NEZ2)
inactive: [2] -0.043 | [4] -0.087 | [1] 0.002 | [6] 0.07 | [7] -0.164 | [3] 0.065 | [10] 0.138

WARS1 (UniProt G3V5U1)
inactive: [4] 0.315 | [8] 0.228 | [9] -0.451

VPS37C (UniProt A5D8V6)
inactive: [2] 0 | [5] -0.105 | [1] 0.005 | [6] -0.053 | [7] -0.032 | [8] -0.035 | [3] -0.05 | [9] 0.057 | [10] 0.067

WNK4 (UniProt Q96J92)
inactive: [1] 0.015 | [7] -0.061 | [10] 0.153

WTAP (UniProt Q15007)
inactive: [2] 0.072 | [4] 0.028 | [6] -0.099 | [7] -0.074 | [8] 0.212 | [3] -0.152 | [9] 0.092 | [10] -0.019

VPS35, A0A1W2PP10
inactive: [1] 0.189 | [7] -0.21 | [8] 0.03 | [9] -0.038 | [10] 0.03

WDR75 (UniProt Q8IWA0)
inactive: [2] -0.109 | [1] 0.173 | [7] 0.144 | [3] 0.162 | [10] -0.197

WWOX (UniProt Q9NZC7)
inactive: [4] -0.111 | [5] -0.09 | [1] -0.086 | [6] -0.079

VPS54 (UniProt Q9P1Q0)
inactive: [1] 0.148 | [6] -0.161 | [7] -0.252 | [8] -0.043 | [9] -0.074 | [10] 0.19

WDFY2 (UniProt Q96P53)
inactive: [2] -0.013 | [1] -0.123 | [6] -0.054 | [7] -0.057 | [3] 0.008 | [10] -0.12

WARS1 (UniProt G3V277)
inactive: [4] 0.021 | [1] 0.005 | [6] -0.052 | [7] 0 | [10] 0.14

VIRMA (UniProt Q69YN4)
inactive: [5] -0.09 | [6] 0.037 | [8] -0.045 | [9] -0.049

WEE1 (UniProt P30291)
inactive: [2] 0.068 | [4] 0.007 | [1] 0.117 | [6] 0.075 | [7] -0.029 | [3] -0.052 | [10] 0.082
